Seven molecules from patent publication US20220135687A1 can be followed below.

Protein sequences, listed by entry. Tags and fused reporters are not part of them. Lines headed by an entry give the natural chain unless they say otherwise; changes in a name come on top.
UniProt Q9NZQ7: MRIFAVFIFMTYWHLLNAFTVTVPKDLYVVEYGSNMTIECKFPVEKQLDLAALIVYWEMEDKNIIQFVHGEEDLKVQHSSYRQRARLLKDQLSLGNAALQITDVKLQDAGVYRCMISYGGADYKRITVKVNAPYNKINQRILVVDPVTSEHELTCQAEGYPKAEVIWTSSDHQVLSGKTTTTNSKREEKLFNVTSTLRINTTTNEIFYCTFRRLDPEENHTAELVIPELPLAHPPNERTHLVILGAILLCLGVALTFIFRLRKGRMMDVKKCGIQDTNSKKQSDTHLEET

Test [1] concerns the target His-tagged PD-L1 ECD protein (ACROBiosystems) (human) (UniProt Q9NZQ7). Nature of the test: SPR, supernatant IgG captured, PD-L1-His analyte. In general terms: Surface plasmon resonance follows binding to a sensor surface in real time, without labels.
The target in test [2] is human PD-L1 expressed on CHO-K1 cells (Genscript, Cat #M00543) (human) (UniProt Q9NZQ7). Nature of the test: FACS, CHO-K1/human PD-L1 cells.
In test [3] the target is cynomolgus PD-L1 overexpressing stable cell line (cynomolgus) (UniProt G7PSE7). Nature of the test: FACS, cynomolgus PD-L1 cell line. (In flow cytometry, cells or beads pass a laser one at a time.)
In test [4] the target is cynomolgus PD-L1 Fc-fusion protein (cynomolgus) (UniProt G7PSE7). Nature of the test: SPR, cyno PD-L1-Fc immobilised, antibody analyte.
For test [5], the target named is His-tagged PD-L1 ECD protein (ACROBiosystems) (human) (UniProt Q9NZQ7). Nature of the test: SPR, IgG captured by anti-human Fc, PD-L1-His analyte.
For test [6], the target named is Human PD-L1 extracellular domain Fc fusion protein (PD-L1-Fc) (GenScript, Cat. No.: Z03371) (human) (UniProt Q9NZQ7). Nature of the test: hybridoma screen: ELISA on PD-L1-Fc, PD-1 competition ELISA, FACS on CHO/PD-L1 cells. In general terms: An ELISA detects its analyte on a solid surface through an enzyme-linked reagent.

These are yes or no findings as the source states them, for the method shown. Some results given as binding are weak or reduced against the parent protein; the word gives no strength.

B1: 53C1_VH2-VL1.M1 (antibody, human IgG1, kappa, N297A, V domains shown)
VH: EVQLVQSGAEVKKPGASVKVSCKASGYIFTGYGITWVRQAPGQGLEWIGEIFPRRVNTYYSEKFKGRATLTTDTSTSTAYMELRSLRSDDTAVYFCARDYDPYFALDYWGQGTTVTVSS
VL: DIQMTQSPSSLSASVGDRVTITCRASQDVSTAVDWYQQKPGKAPKLLIYSASYRYTGVPDRFSGSGSGTDFTFTISSLQPEDIATYYCQQHYSIPFTFGQGTKLEIKR
For the molecule B1, the binding result in test [1] is on record as “binds”.

B2: 53C1_VH3.M3-VL1.M1 (antibody, human IgG1, kappa, N297A, V domains shown)
VH: EVQLVQSGAEVKKPGASVKLSCKASGYIFTGYGITWVRQAPGQGLEWIGEIFPRRVQTYYSEKFKGRATLTADTSTSTAYMELRSLRSDDTAVYFCARDYDPYFALDYWGQGTTVTVSS
VL: DIQMTQSPSSLSASVGDRVTITCRASQDVSTAVDWYQQKPGKAPKLLIYSASYRYTGVPDRFSGSGSGTDFTFTISSLQPEDIATYYCQQHYSIPFTFGQGTKLEIKR
Turning to B2, in test [1], the binding entry was “binds”.

B3: 53C1_VH3-VL1.M1 (antibody, human IgG1, kappa, N297A, V domains shown)
VH: EVQLVQSGAEVKKPGASVKLSCKASGYIFTGYGITWVRQAPGQGLEWIGEIFPRRVNTYYSEKFKGRATLTADTSTSTAYMELRSLRSDDTAVYFCARDYDPYFALDYWGQGTTVTVSS
VL: DIQMTQSPSSLSASVGDRVTITCRASQDVSTAVDWYQQKPGKAPKLLIYSASYRYTGVPDRFSGSGSGTDFTFTISSLQPEDIATYYCQQHYSIPFTFGQGTKLEIKR
In the case of B3, the binding entry in test [2], in test [3], in test [1], in test [4] and in test [5] was “binds” in each case.

B4: 29A8_VH2-VL1.M1 (antibody, human IgG1, kappa, N297A, V domains shown)
VH: EVQLQESGPGLVKPSETLSLTCTVSGYSITSDFAWDWIRQFPGKGLEWMGHIRFSGTTSYNPSLKSRITISVDTSKNQFSLKLSSVTAADTAVYYCARSTLITKGFFDYWGQGTLVTVSS
VL: DIQMTQSPSSLSASVGDRVTITCRASQDVSPAVAWYQQKPGKAPKLLIYWASTRHTGVPSRFSGSGSGTDFTLTISSLQPEDFATYYCQQHYSTPWTFGQGTKVEIKR
Regarding B4, the binding result in test [1] is on record as “binds”.

B5: 29A8_VH5-VL1.M1 (antibody, human IgG1, kappa, N297A, V domains shown)
VH: EVQLQESGPGLVKPSETLSLTCTVSGYSITSDFAWDWIRQPPGKGLEWIGHIRFSGTTSYNPSLKSRVTISRDTSKNQFSLKLSSVTAADTAVYYCARSTLITKGFFDYWGQGTLVTVSS
VL: DIQMTQSPSSLSASVGDRVTITCRASQDVSPAVAWYQQKPGKAPKLLIYWASTRHTGVPSRFSGSGSGTDFTLTISSLQPEDFATYYCQQHYSTPWTFGQGTKVEIKR
Consider B5, for which the binding entry in test [2], in test [3], in test [1], in test [4] and in test [5] was “binds” throughout.

B6: 29A8_VH3-VL1.M1 (antibody, human IgG1, kappa, N297A, V domains shown)
VH: EVQLQESGPGLVKPSETLSLTCTVSGYSITSDFAWDWIRQFPGKGLEWMGHIRFSGTTSYNPSLKSRITISVDTSKNQFFLKLSSVTAADTATYYCARSTLITKGFFDYWGQGTLLTVSS
VL: DIQMTQSPSSLSASVGDRVTITCRASQDVSPAVAWYQQKPGKAPKLLIYWASTRHTGVPSRFSGSGSGTDFTLTISSLQPEDFATYYCQQHYSTPWTFGQGTKVEIKR
B6: the binding entry in test [1] is recorded as “binds”.

B7: 42G2D7C3 (antibody, V domains shown)
VH: DVQLLESGPGLVKPSQSLSLTCSVTGYSITSGYYWNWIRQFPGNNLEWMGSINYDGSNDYNPSLQDRISITRDTSKNQFFLKLNSVTTEDTATYYCARRLDYWGQGTTLIVSS
VL: QIVLTQSPAIMSASPGEKVTISCSASSFINYMYWYQQKPGSSPKPWILRTSTLASGVPARFSGSGSGTSYSLTISSMEAEDAATYYCQQYHSYPLTFGAGTKLELK
For the molecule B7, the binding entry in test [2] and in test [6] was “binds” throughout.
